Data taken from ChEMBL document CHEMBL3988442, “University of Dundee, Small-Polar-MMV Screening Library” (2021).

Mtb growth Cornell: 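Whole-cell assay for inhibitors of Mycobacterium tuberculosis growth, labelled Cornell in the record; the read-out is not stated. The concentration is filed as 10 mM, unlikely as a test dose, so the dose is not known. The record gives no direction; compounds strong in two other growth screens of this library score well above the rest, so higher reads as stronger inhibition. Size under these conditions: about 53,000 compounds, about 900 of them at 50% or above in at least one test.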
Mtb heat-shock: 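Assay on Mycobacterium tuberculosis, filed only as a heat shock assay from Cornell; the read-out is not stated. The concentration is filed as 10 mM, unlikely as a test dose, so the dose is not known. The record gives no direction; compounds that gave an IC50 in retests scored well above the rest, so higher reads as stronger inhibition. Size under these conditions: about 69,000 compounds, about 930 of them at 50% or above in at least one test.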

The filed quantity is “Percent Effect” (%). The record does not define 0% and 100%; most values in the screen are far below 50% and negative numbers occur (in some assays of this library far below -100). Compounds were drawn at random from those tested, without regard to their results. A dash means the value is not listed here; it may have been measured.

| compound | Mtb growth Cornell | Mtb heat-shock |
|---|---|---|
| `COc1ccc(CN2CC[C@@H](N)[C@@H](OC)C2)cc1Cn1cncn1` | -21.47% | 32.2% |
| `Cc1cc(CN2CCN(C(=O)Nc3cccnc3)CC2)on1` | - | 9.442% |
| `[H][C@@]12CN(Cc3ccccc3)C[C@]1([H])OCC(=O)N2CC(N)=O` | -7.522% | -5.592% |
| `[H][C@]12CCC[C@@]1(COC)CN(C(=O)Cc1ccco1)C2` | -2.425% | 2.648% |
| `Cc1cc2nc(C(C)C)cc(N3CCN(S(N)(=O)=O)CC3)n2n1` | 7.182% | 23.73% |
| `CN(CC(=O)Nc1nncs1)CC1CCCN1c1cccnn1` (stereo not drawn) | -18.05% | -16.27% |
| `[H][C@]12CC[C@]([H])(CN(S(C)(=O)=O)C1)N(C(=O)CCc1n[nH]c3c1CCCC3)C2` | 2.213% | 3.499% |
| `CC(C(=O)Nc1ccccn1)n1ccc(C(F)(F)F)n1` (stereo not drawn) | 17.19% | -20.52% |
| `Cc1cc(C(=O)N[C@H]2CC[C@@]3(CCC(=O)N3C)CC2)no1` | - | -8.619% |
| `Cc1cc(=O)[nH]c(NCCNC(=O)C(c2ccc(F)cc2)N(C)C)n1` (stereo not drawn) | -0.9697% | -17.64% |
| `CCS(=O)(=O)N1CCC2(CC1)COC(COc1cccnc1)C2.O=C(O)C(F)(F)F` (stereo not drawn) | -12.3% | -16.1% |
| `CC(C)C(=O)N1CCCC2(C1)CN(c1nncs1)CCO2.O=C(O)C(F)(F)F` (stereo not drawn) | 6.308% | -5.763% |
| `O=C1OCCN1C1CCN(Cc2cc3n(n2)CCCNC3)CC1` | -11.12% | -18.68% |
| `CCO[C@H]1CN(C)C[C@@H]1NC(=O)c1c[nH]nc1C1CCCCC1` | -22.61% | 8.311% |
| `CCN1C(=O)CC(c2cnn(C)c2)C12CCN(C(=O)c1ccoc1)CC2` (stereo not drawn) | 8.945% | -19.4% |
| `O=C(O)c1nc(SCc2ccccc2)ncc1Br` | 8.766% | -0.03024% |
| `O=C(O)C(F)(F)F.[H][C@@]12CCN(S(=O)(=O)c3cccnc3)C[C@]1(C(=O)NC)CCO2` | 5.476% | 3.091% |
| `OC(CNCCn1cccn1)COc1ccc(Br)cc1` (stereo not drawn) | -17.66% | -12.74% |
| `CCC1C(=O)NCCN1c1cc(C)ncn1` (stereo not drawn) | -3.557% | -1.428% |
| `O=C(C1CC1)N1CCN(Cc2coc(-c3ccc(Cl)cc3)n2)CC1` | 20.56% | 19.51% |
| `N#Cc1cccc(N2CCCC3(CN(C(=O)c4ccc[nH]4)CCO3)C2)c1` (stereo not drawn) | -9.939% | 7.77% |
| `[H][C@]12CC[C@]([H])(CN(C(=O)c3ccncc3)C1)N(C(=O)CN(C)CCOC)C2` | 24.26% | -5.581% |
| `CCN(CC)S(=O)(=O)c1ccc(OC)c(NC(=O)CSC)c1` | 25.6% | -13.27% |
| `CCOCC1CN(C(=O)c2cscn2)Cc2cnn(CC3CC3)c21` (stereo not drawn) | -20.4% | -26.44% |
| `[H][C@]12CC[C@]([H])(CN(Cc3[nH]cnc3C)C1)N(Cc1ccccc1SC)C2` | 1.782% | 14.13% |
| `CC(=O)Nc1ncc(S(=O)(=O)N2CCOCC2)s1` | -11.05% | 6.885% |
| `CCc1nc(C2CCCN2Cc2cc(C)nc3ccccc23)no1` (stereo not drawn) | - | 10.85% |
| `CCOCC1CN(C(=O)Cc2ccccn2)Cc2cnn(CC)c21` (stereo not drawn) | -26.4% | -33% |
| `CCCc1ccc(C(=O)N2Cc3c(Cn4ccnc4)nn(C)c3C2)cc1.O=CO` | 14.15% | 3.337% |
| `CSCCc1ccc(NC(=O)NC(C)Cn2cncn2)cc1` (stereo not drawn) | - | -2.597% |
| `CCN1CCC2(CN(C(C)=O)CC23CCN(C(=O)N(C)C)CC3)C1=O` (stereo not drawn) | - | 10.76% |
| `COCc1nc2cc(NCc3ncc[nH]3)ccc2o1` | 107.7% | -4.371% |
| `CC(C)CCC(=O)N1CCN(C(=O)c2ccc3nccn3c2)CC1` | 16.7% | -22.36% |
| `COc1cc(CNCCc2cc(F)cc3c2OCOC3)cc(OC)c1` | 44.93% | 6.426% |
| `COCCn1ccc2c(cnc3nc(SC)nn32)c1=O` | 2.092% | 2.328% |
| `CCN1CCN(S(=O)(=O)c2c[nH]c(C(C)C)n2)c2ccccc21` | 19.57% | -6.889% |
| `O=C(CCn1cccn1)NCCOc1ncc(Cl)cc1Cl` | 5.375% | 4.573% |
| `O=C1NCCN1C1CCN(CCOc2ccccc2Cl)CC1` | - | 0.4447% |
| `COc1ccccc1C(C)(C)NC(=O)NCCC(=O)NC1CCCC1` | -41.21% | 1.243% |
| `CCC(=O)N1CCc2[nH]cnc2C12CCN(C(=O)CCS(C)(=O)=O)CC2` | 8.541% | 77.54% |
| `CCOC1CCN(C(=O)c2cnn(-c3ccccc3Cl)c2)CC1` | 20.35% | 5.382% |
| `CC(C)(C)c1cc(NC(=O)CN(Cc2ccco2)Cc2cccs2)on1` | -6.5% | -7.932% |
| `Cc1cnn(CC2CCCN2C(=O)c2cccc3[nH]ncc23)c1` (stereo not drawn) | - | -11.56% |
| `CC(C)(C)NC(=O)C1CSCN1S(=O)(=O)c1ccccc1F` (stereo not drawn) | - | -12.26% |
| `[H][C@@]12OCCC[C@]1([H])N(C(=O)c1cnc(C)cn1)C[C@@H]2N1CCOCC1` | 1.179% | 4.573% |
| `Cc1nsc(NC2CC(=O)N(C(C)(C)C)C2)n1` (stereo not drawn) | -8.545% | -21.69% |
| `CC(NC(=O)N(C)Cc1ccc(Cl)s1)c1ccccn1` (stereo not drawn) | - | 5.451% |
| `CC(C)c1noc(C2CCCN2C(=O)CN2CCc3ccccc32)n1` (stereo not drawn) | - | 0.9153% |
| `CCc1nc(CN2CCOC(Cn3cncn3)C2)no1` (stereo not drawn) | - | -15.82% |
| `c1coc(-c2noc(CN3CCc4cncnc4C3)n2)c1` | - | 14.23% |
| `CN(C)c1cc(CNC(=O)Nc2cccnc2N2CCCC2)ccn1` | - | -8.847% |
| `c1cncc(-c2noc(CN3CCOC(Cn4cccn4)C3)n2)c1` (stereo not drawn) | - | -20.26% |
| `Cc1cc(CNc2ccccc2Cl)no1` | - | 16.55% |
| `CC(C)OCCC(=O)NCC(O)c1c(Cl)cccc1Cl` (stereo not drawn) | - | -8.588% |
| `O=C(NCC(Cc1cccc(F)c1)N1CCCC1=O)c1ccc(=O)[nH]n1` (stereo not drawn) | 14.14% | 1.974% |
| `O=C(C1CN(CC2CCOCC2)CC12CCOCC2)N1CCOCC1.O=C(O)C(F)(F)F` (stereo not drawn) | -20.47% | -5.52% |
| `CNC(=O)c1nc(COc2ccc3c(c2)OCO3)no1` | 2.513% | 26.95% |
| `Cc1ccc(CN2CCN(C(=O)CCc3nc(Cl)n[nH]3)CC2=O)cc1` | 6.575% | -9.544% |
| `c1ncc(-c2cn(CCSc3cnn[nH]3)nn2)cn1` | - | -23.7% |
| `CC(C)n1c(=O)c2sccc2n(CC(=O)Nc2ccccc2)c1=O` | - | 5.08% |
| `Cc1nc2cc(-c3nccn3C)nn2c(N2CCCC2)c1C` | 3.387% | 12.39% |

Some entries from above, unchanged:

- CCc1nc(CN2CCOC(Cn3cncn3)C2)no1 (stereo not drawn) : Mtb heat-shock: -15.82%
- CCOCC1CN(C(=O)Cc2ccccn2)Cc2cnn(CC)c21 (stereo not drawn) : Mtb growth Cornell: -26.4%; Mtb heat-shock: -33%
- CC(C)(C)c1cc(NC(=O)CN(Cc2ccco2)Cc2cccs2)on1 : Mtb growth Cornell: -6.5%; Mtb heat-shock: -7.932%
- COCc1nc2cc(NCc3ncc[nH]3)ccc2o1 : Mtb growth Cornell: 107.7%; Mtb heat-shock: -4.371%